Experimental data published in publication PMC8402725.
These are yes or no findings as the source states them, for the method shown. Binding seen in cells or lysates may run through a third protein. Some binding calls cover weakened binding; strength is not graded here.

Sequences of proteins named here, by UniProt entry; tags and fusion partners are left off.
UniProt Q05322: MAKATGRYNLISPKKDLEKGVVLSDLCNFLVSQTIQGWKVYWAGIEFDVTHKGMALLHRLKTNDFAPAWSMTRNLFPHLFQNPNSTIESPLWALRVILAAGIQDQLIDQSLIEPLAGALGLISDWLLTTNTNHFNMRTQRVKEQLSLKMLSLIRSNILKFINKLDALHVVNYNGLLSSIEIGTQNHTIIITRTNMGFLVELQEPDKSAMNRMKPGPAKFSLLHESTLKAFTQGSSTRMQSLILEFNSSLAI
UniProt P52294: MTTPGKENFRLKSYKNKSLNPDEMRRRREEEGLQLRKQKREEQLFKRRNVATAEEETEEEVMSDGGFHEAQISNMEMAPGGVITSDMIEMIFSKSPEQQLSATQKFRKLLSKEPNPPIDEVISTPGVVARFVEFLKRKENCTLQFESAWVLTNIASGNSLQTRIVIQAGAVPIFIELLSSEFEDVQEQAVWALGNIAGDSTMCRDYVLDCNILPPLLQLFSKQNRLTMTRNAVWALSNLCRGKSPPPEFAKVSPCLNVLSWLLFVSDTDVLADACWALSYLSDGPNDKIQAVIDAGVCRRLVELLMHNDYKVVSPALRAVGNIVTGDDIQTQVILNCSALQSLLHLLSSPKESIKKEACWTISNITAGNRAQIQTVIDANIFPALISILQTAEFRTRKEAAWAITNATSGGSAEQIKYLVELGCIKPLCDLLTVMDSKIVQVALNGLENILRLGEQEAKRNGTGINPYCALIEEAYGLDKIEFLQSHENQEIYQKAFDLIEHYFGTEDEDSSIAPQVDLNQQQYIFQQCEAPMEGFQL

Biological target: EBOV VP24 fused to GFP (GFP-VP24, full-length, residues 1-251) (Ebola virus (EBOV, species Zaire ebolavirus)) (UniProt Q05322)
Assay: co-IP

Substance: FLAG-tagged karyopherin alpha 1 (FLAG-Kα1) (from UniProt P52294 1-538)
- binding: binds
